Reference: PubChem BioAssay AID2685 (National Center for Advancing Translational Sciences (NCATS), 2010)
“And” between values parts separate entries of the source, which are not always exact repeats. Equal entries are not always repeated. The list shows a part of the results. Further columns of the screen follow, without active or inactive calls. Compounds called inactive in the main read-out are mostly missing here. Potencies come from curve fits of mixed quality, noted in brackets.

Test: qHTS Assay for Lipid Storage Modulators in Drosophila S3 Cells;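 on cell number change: cells counted by Cell Tracker Red CMTPX staining in the red channel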
Settings: BODIPY lipid droplet fluorescence, 18-24 h; for cell number change: measured here: cell count max response, cells fed with added oleic acid
In short: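 Drosophila S3 cells got compounds at several concentrations plus oleic acid (400 uM solution). Laser-scanning cytometry with 488 nm excitation read lipid droplets at 500-530 nm and cells at 575-640 nm. Percent activity was relative to 20 uM Triacsin C.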

[1] = measured here: cell number channel AC50, cells fed with added oleic acid
[2] = measured here: lipid fluorescence (Fed channel) AC50, cells fed with added oleic acid

Structure (SMILES) | cell number change | AC50 [1] | AC50 [2]
Cc1nn(C)c(Cl)c1CN1CCC(n2nccc2NC(=O)C2CCCC2)CC1 | 33.2% | 0.231 µM [rising, full curve] | 
COc1cc(/C=C2\C(=O)ON=C2c2ccccc2)cc(Cl)c1O | 12.3% |  | 16.4 µM [falling, single point]
O=C(COC(=O)C(Cc1ccccc1)NC(=O)c1ccccc1)c1ccccc1 (stereo not drawn) | 24.5% |  | 
CCc1nccn1S(=O)(=O)c1ccc(OC)c(OC)c1 | 1.29% |  | 8.2 µM [rising, partial curve, poor fit]
CCN(CC)C(=O)c1nn(Cc2ccccc2)c(=O)c2ccccc12 | -17% |  | 
CCN(CC)CCn1c2c(c(SCC(=O)Nc3ccc(C)c(F)c3)nc1=O)CCC2 | -44.2% | 32.6 µM [falling, single point] | 
O=[N+]([O-])c1ccc(S(=O)(=O)CC(CN2CCCCC2)N2CCCCC2)cc1 (stereo not drawn) | -50.5% | 5.8 µM [falling, partial curve, poor fit] | 2.59 µM [falling, partial curve, poor fit]
Cc1ccc(S(=O)(=O)N/N=C/c2cccc3nccnc23)cc1 | -49.3% | 0.13 µM [falling, full curve] | 0.146 µM [falling, full curve]
O=S(=O)(Nc1ncnc2c1oc1ccccc12)c1ccc(Cl)s1 | 31.6% | 29.1 µM [rising, single point] | 
O=C(O)c1ccc(-c2nc(-c3ccc(Cl)cc3)cs2)cc1 | -18.9% | 0.366 µM [falling, full curve] | 
CC(C)NS(=O)(=O)c1ccc(OCC(=O)Nc2cccc(F)c2)cc1 | -20.9% | 0.0164 µM [falling, full curve, poor fit] | 0.82 µM [falling, full curve]
COc1ccc(NC(=O)CN2CCC(NC(=O)c3ccco3)CC2)c([N+](=O)[O-])c1 | -4.27% |  | 3.26 µM [falling, partial curve]
CN(C(=O)CSc1nc2ccccc2s1)c1c(N)n(Cc2ccccc2)c(=O)[nH]c1=O | -31.5% | 6.51 µM [falling, full curve, poor fit] | 
COc1ccc(CNC(=O)CSc2nc(SC)ns2)cc1 | -8.29% |  | 1.46 µM [rising, single point]
COC(=O)c1[nH]c2c(c1C)C(=O)CCC2 | -9.2% |  | 
Nc1nc2ccccc2n1/N=C/c1ccc(Br)cc1 | -140% | 29.1 µM [falling, single point] | 29.1 µM [falling, single point]
CC(Oc1ccc(Cl)cc1)C(=O)NCC1CCCO1 (stereo not drawn) | -4.62% |  | 
CCn1c(C)nc2cc(S(=O)(=O)C(F)(F)F)ccc21 | -1.64% |  | 
CC1(C)CC(N2CCCC2)=CC(=[N+]2CCCCCC2)C1 | -48.9% | 0.58 µM [falling, full curve, poor fit] | 0.0517 µM [falling, full curve, poor fit]
Cc1ccc(N=Nc2c(C)[nH]n(-c3ccccc3)c2=O)cc1Br | -2.7% |  | 1.84 µM [falling, partial curve]

Structure (SMILES) | cell number change | AC50 [1] | AC50 [2]
COc1cccc(CNC(=O)c2cccnc2Sc2ccccc2)c1 | 20% |  | 
C=CCn1c(SCc2c(C)noc2C)nc2sc3c(c2c1=O)CCCC3 | -32.9% | 14.6 µM [falling, partial curve, poor fit] | 18.4 µM [falling, partial curve]
CCCC(=O)Oc1ccc(-c2nccc(C(OC)OC)n2)cc1 | 23.2% |  | 4.11 µM [rising, single point]
CC(=O)c1ccc(NC(=O)C2CCCO2)cc1 (stereo not drawn) | 14.4% |  | 
COc1ccc(NC(=O)c2cccs2)cc1OC | 2.37% |  | 7.31 µM [rising, partial curve]
COc1cc2c(OC)cccc2cc1C(=O)O | -14.3% |  | 5.17 µM [falling, full curve, poor fit]
O=C(O)CCC(=O)Nc1ccc2c(c1)oc1ccccc12 | -41% | 9.2 µM [falling, partial curve, poor fit] | 29.1 µM [falling, single point]
COc1ccc(-c2cc(C(F)(F)F)n3nc(C(=O)N4CCN(C(=O)c5ccco5)CC4)cc3n2)cc1 | -19.8% |  | 0.731 µM [rising, full curve]
CCOc1ccccc1NC(=O)N1CCCC1C(=O)Nc1nnc(CC)s1 (stereo not drawn) | -12.2% |  | 2.06 µM [falling, full curve, poor fit]
COCc1ccccc1C1=CC(=O)C[C@H](c2ccc(OC)cc2)C1 | -20.4% | 1.46 µM [falling, partial curve, poor fit] | 2.06 µM [falling, partial curve]
CCOc1ccc(S(=O)(=O)N2CCOCC2)cc1NC(=O)CN1C(=O)NC(C)(c2ccccc2)C1=O (stereo not drawn) | -18.8% |  | 29.1 µM [rising, single point]
COc1ccc2c(c1)c1ncn(CCN3CCNCC3)c(=O)c1n2C | 55.6% | 20.6 µM [rising, partial curve] | 
COc1ccc(NS(=O)(=O)c2cc(C(=O)O)ccc2C)cc1 | -46.2% | 10.3 µM [falling, partial curve] | 5.17 µM [falling, partial curve]
Cc1cccc(Nc2nnc(SCC(=O)NC(=O)Nc3ccc4c(c3)OCCO4)s2)c1 | 6.48% | 0.206 µM [rising, full curve, poor fit] | 29.1 µM [falling, single point]
CCOc1ccc(NC(=O)NCCCCc2ccccc2)cc1 | -26% |  | 5.62 µM [rising, full curve, poor fit]
Cc1cc(Br)ccc1NC(=O)CN(C)C(=O)C1CSC2(C)CCC(=O)N12 (stereo not drawn) | -2.55% |  | 0.184 µM [rising, full curve, poor fit]
CCc1c(C(=O)N/N=C/c2cccs2)nnn1-c1nonc1N | -31.7% | 5.17 µM [falling, single point] | 29.1 µM [falling, single point]
O=C(Nc1cc(C(F)(F)F)ccc1N1CCOCC1)c1ccc(Cl)nc1 | -4.18% |  | 7.31 µM [rising, partial curve]
C/C(=N\NC(N)=O)c1cccc(Cl)c1 | -45.4% | 29.1 µM [falling, single point] | 0.00461 µM [falling, full curve, poor fit]
O=C(NC(=S)Nc1ccc2c(c1)OCCO2)c1cccc(Br)c1 | 21.1% |  | 

Fetched by compound from the entries so far, 4 records:
Structure (SMILES) | cell number change | AC50 [1] | AC50 [2]
CN(C(=O)CSc1nc2ccccc2s1)c1c(N)n(Cc2ccccc2)c(=O)[nH]c1=O | -31.5% | 6.51 µM [falling, full curve, poor fit] | 
CCc1c(C(=O)N/N=C/c2cccs2)nnn1-c1nonc1N | -31.7% | 5.17 µM [falling, single point] | 29.1 µM [falling, single point]
COc1ccc(-c2cc(C(F)(F)F)n3nc(C(=O)N4CCN(C(=O)c5ccco5)CC4)cc3n2)cc1 | -19.8% |  | 0.731 µM [rising, full curve]
COc1cc2c(OC)cccc2cc1C(=O)O | -14.3% |  | 5.17 µM [falling, full curve, poor fit]

(list continues)

Structure (SMILES) | cell number change | AC50 [1] | AC50 [2]
CCCCn1nnc(NC(=O)Cc2ccc(Cl)cc2)n1 | -13.3% |  | 
O=[N+]([O-])c1cc(Br)c(O)c(C=Nc2ccc(N3CCOCC3)cc2)c1 | -9.38% |  | 
O=C1CC(N2C(=O)/C(=C/C=C/c3ccccc3)SC2=S)C(=O)N1c1ccccc1 (stereo not drawn) | 0.5% |  | 
Cc1cc2occ(CC(=O)NC3(C)CCS(=O)(=O)C3)c2cc1C (stereo not drawn) | 10.4% |  | 11.2 µM [rising, partial curve]
COc1ccc(S(=O)(=O)N2CCCC2C(=O)NCc2ccccc2Cl)cc1 (stereo not drawn) | 22.1% |  | 0.731 µM [rising, full curve, poor fit]
Cn1c(=O)c2c(nc(NCCc3ccccc3)n2Cc2ccccc2)n(C)c1=O | -30.5% | 6.51 µM [falling, full curve, poor fit] | 5.17 µM [falling, full curve]
CCC(Oc1ccccc1)C(=O)N(CC)CC(=O)NCc1ccc(F)cc1 (stereo not drawn) | -75% | 1.84 µM [falling, partial curve] | 
O=S(=O)(c1cccc(C(F)(F)F)c1)N(CCCN1CCOCC1)Cc1cccs1 | 47.1% and 32.6% | 29.1 µM [rising, single point] and 16.4 µM [rising, single point] | 29.1 µM [rising, single point] and 29.1 µM [falling, single point]
Cc1nc(NCCc2cnc[nH]2)c2oc3ccccc3c2n1 | -8.88% |  | 2.06 µM [rising, full curve, poor fit]
Cc1ccc(C(=O)OCC(=O)N2CC(C)OC(C)C2)cc1 (stereo not drawn) | 12.6% |  | 9.2 µM [rising, partial curve]
CC1(C(=O)OCC(=O)Nc2ccccc2)CC1(Cl)Cl (stereo not drawn) | -13.8% |  | 29.1 µM [falling, single point]
CCCC(C(=O)Nc1cccc(S(=O)(=O)N2CCCC2)c1)c1ccccc1 (stereo not drawn) | 4.15% |  | 
N#Cc1c(Cl)nc(-c2ccncc2)nc1-c1ccccc1 | 16.4% |  | 6.51 µM [falling, single point]
CC(OC(=O)c1cccnc1SCc1cc(=O)n2ccccc2n1)c1ccccn1 (stereo not drawn) | 8.77% |  | 
COc1cc(OC)c(S(=O)(=O)Nc2ccccc2N2CCCCC2)cc1NC(C)=O | -0.367% |  | 0.651 µM [falling, full curve, poor fit]
O=C(NCc1ccccn1)[C@H]1C[C@@H]1[C@H](NP(=O)(c1ccccc1)c1ccccc1)c1ccccc1 | 5.28% |  | 16.4 µM [rising, partial curve, poor fit]
CCn1c(SCC(=O)N(C)C)nc2cc(S(=O)(=O)N3CCOCC3)ccc21 | 3% |  | 
Cc1ccc(S(=O)(=O)N2CCOCC2)cc1C(=O)OCc1nnc(-c2ccccc2)o1 | -2.99% |  | 23.1 µM [rising, partial curve, poor fit]
Cc1cccc(NC(=O)CN2CCN(C(=O)c3cccc(-n4cnnn4)c3)CC2)c1C | 2.22% |  | 4.61 µM [rising, full curve, poor fit]
